In PubChem BioAssay AID330 (DTP/NCI, 2004) one finds survivor count and T/C data, which are given here for 25 molecules.

The list is a part of this screen's results and no random one: it is rich in T/C values a quarter to a half above the control, in often repeated tests (any T/C) and in doses without a T/C. Other doses and runs of a compound stand elsewhere. T/C gives the treated animals as a percentage of the vehicle group. Some doses have a count of surviving animals in place of a T/C: the source holds a T/C of zero for them, seemingly a mark for toxic or unscored doses. Some survivor counts are full or nearly so, which does not show that the dose was tolerated: the source hardly ever lists a survival T/C far under the control, and the zero likely stands for such cases as well. Survivors were counted at the toxicity check, usually on the fifth day, unless a day is given; later deaths do not show. Schedules are NCI's codes, taken here to give the interval after Q, in days (D) or hours (H), and the number of doses after X. Some entries hold several experiments; the results are listed from low to high. For survival time, the PubChem record calls one and a half times the control and up active, and a quarter to a half above the control has no call in these data; cut-offs in other NCI protocols can differ. Some T/C values carry the count of animals alive at the toxicity check (mostly the fifth day); without a count, all were alive then.

This experiment relates to P388 leukemia ip, CD2F1 mice, survival T/C. Put plainly: NCI In Vivo Anticancer Drug Screen. Data for tumor model P388 Leukemia (intraperitoneal) in CD2F1 (CDF1) mice. The settings on record: T/C endpoint: median survival time, higher T/C = longer survival.
[1] abbreviates: dose: 120.0 mg/kg/injection, schedule: Q01DX005 (ip), vehicle: saline with Tween-80.
[2] abbreviates: dose: 240.0 mg/kg/injection, schedule: Q01DX005 (ip), vehicle: saline with Tween-80.
Where [3] appears, read: dose: 100.0 mg/kg/injection, schedule: Q01DX005 (ip), vehicle: saline with Tween-80.
Where [4] appears, read: dose: 50.0 mg/kg/injection, schedule: Q01DX009 (ip), vehicle: saline with Tween-80.
The mark [5] stands for this setting: dose: 100.0 mg/kg/injection, schedule: Q01DX009 (ip), vehicle: saline with Tween-80.
[6] abbreviates: dose: 200.0 mg/kg/injection, schedule: Q01DX009 (ip), vehicle: saline with Tween-80.
The mark [7] stands for this setting: dose: 25.0 mg/kg/injection, schedule: Q01DX005 (ip), vehicle: saline with Tween-80.
Setting [8] is: dose: 50.0 mg/kg/injection, schedule: Q01DX005 (ip), vehicle: saline with Tween-80.
Setting [9] is: dose: 200.0 mg/kg/injection, schedule: Q01DX005 (ip), vehicle: saline with Tween-80.
The mark [10] stands for this setting: dose: 200.0 mg/kg/injection, schedule: Q01DX005 (ip), vehicle: Klucel (hydroxypropylcellulose) (HPC).
Where [11] appears, read: dose: 400.0 mg/kg/injection, schedule: Q01DX005 (ip), vehicle: saline with Tween-80.

Consider `CCCCC1CN1C(=N)OCC` (centres undefined), for which the survivor count reads like this: (dose: 12.5 mg/kg/injection, schedule: Q01DX005 (ip), vehicle: saline) 6 of 6; (dose: 50.0 mg/kg/injection, schedule: Q01DX005 (ip), vehicle: saline) 6 of 6; (dose: 100.0 mg/kg/injection, schedule: Q01DX005 (ip), vehicle: saline) 3 of 6; under setting [1], 1 of 6; under setting [2], 0 of 6.
As to `COC(=O)C(=O)c1c(C(=O)OC)nc2nnc(N)n2c1-c1ccc(F)cc1`, under setting [1], the survivor count is listed as 6 of 6.
Take `CCCC(=O)C1C(c2ccccc2)CC(=O)C(CC)C1c1ccccc1` (centres undefined): the survivor count under setting [3] is 5 of 5.
Consider `C=C(C1OC2OC(C)(C)OC2C1OC)P(=O)(OC(C)C)OC(C)C` (centres undefined), for which the survivor count (dose: 400.0 mg/kg/injection, schedule: Q04DX002 (ip), vehicle: saline with Tween-80) is 0 of 6.
For the molecule `COc1ccc(C2CC(=O)N(CN3CCN(c4ccc(Cl)cc4)CC3)C(=O)C2)cc1`, the survivor count reads like this: under setting [4], 6 of 6; under setting [5], 6 of 6.
Turning to `CCCCS(=O)(=O)N/N=C/C(=O)O`, the T/C was 135 and 136 % of control [5 of 6 alive] (dose: 25.0 mg/kg/injection, schedule: Q01DX009 (ip), vehicle: water); 136 % of control [5 of 6 alive] (dose: 50.0 mg/kg/injection, schedule: Q01DX009 (ip), vehicle: water). For the same molecule, the survivor count is 5 of 6 (dose: 100.0 mg/kg/injection, schedule: Q01DX009 (ip), vehicle: water); 4 of 6 and 5 of 6 (dose: 200.0 mg/kg/injection, schedule: Q01DX009 (ip), vehicle: water); 0 of 6 (dose: 400.0 mg/kg/injection, schedule: Q01DX009 (ip), vehicle: water).
Take `CC1CCC2CC(C3CCCC[N-]3)[N-]C(N)C2C1.CC1CCC2CC(C3CCCC[N-]3)[N-]C(N)C2C1.O=[N+]([O-])O.[Cu+]` (centres undefined): the survivor count (dose: 50.0 mg/kg/injection, schedule: Q04DX002 (ip), vehicle: saline) was 2 of 6; the survivor count (dose: 100.0 mg/kg/injection, schedule: Q04DX002 (ip), vehicle: saline) is 1 of 6; the survivor count (dose: 200.0 mg/kg/injection, schedule: Q04DX002 (ip), vehicle: suspension in saline) is listed as 6 of 6; the survivor count (dose: 400.0 mg/kg/injection, schedule: Q04DX002 (ip), vehicle: suspension in saline) is recorded as 4 of 6.
`Cc1cccc(C(C)C)c1NC(=O)C(=O)C(C#N)c1ccc(CC#N)cc1` (centres undefined): the survivor count under setting [2] was 0 of 6.
Regarding `CC1Cc2ccccc2[N+]1(C)C` (centres undefined), the survivor count by setting is: (dose: 100.0 mg/kg/injection, schedule: Q01DX001 (ip), vehicle: saline) 2 of 6; (dose: 200.0 mg/kg/injection, schedule: Q01DX001 (ip), vehicle: saline) 0 of 6; (dose: 400.0 mg/kg/injection, schedule: Q01DX001 (ip), vehicle: saline) 0 of 6.
As to `CS[C@@H]1C[C@H]2[C@@H]3CCC4=CC(=O)CC[C@]4(C)[C@H]3CC[C@]2(C)[C@H]1C(C)=O`, the survivor count under setting [5] is reported as 6 of 6; the survivor count under setting [6] is on record as 6 of 6; the survivor count (dose: 400.0 mg/kg/injection, schedule: Q01DX009 (ip), vehicle: saline with Tween-80) is recorded as 6 of 6.
On to `C/C=C/C(C#N)OC(C)=O` (centres undefined), for which the survivor count is, setting by setting: (dose: 15.0 mg/kg/injection, schedule: Q01DX005 (ip), vehicle: saline) 0 of 6; (dose: 30.0 mg/kg/injection, schedule: Q01DX005 (ip), vehicle: saline) 0 of 6; (dose: 60.0 mg/kg/injection, schedule: Q01DX005 (ip), vehicle: saline) 0 of 6; (dose: 120.0 mg/kg/injection, schedule: Q01DX005 (ip), vehicle: saline) 0 of 6; (dose: 240.0 mg/kg/injection, schedule: Q01DX005 (ip), vehicle: saline) 0 of 6.
`CCCCN=NNCCCC`: under setting [7], the T/C was 129 % of control. For the same molecule, the survivor count is, setting by setting: under setting [8], 5 of 5; under setting [3], 1 of 5 and 2 of 6; under setting [9], 0 of 6.
`CN(C)c1ncnc2c1ccn2C1OC(CO)C(O)C1O` (centres undefined): the survivor count was 4 of 6 (dose: 50.0 mg/kg/injection, schedule: Q01DX005 (ip), vehicle: Klucel (hydroxypropylcellulose) (HPC)); 0 of 2 (dose: 100.0 mg/kg/injection, schedule: Q01DX005 (ip), vehicle: Klucel (hydroxypropylcellulose) (HPC)); 0 of 6 under setting [10].
For `COc1cc(NS(C)(=O)=O)ccc1Nc1c2ccccc2nc2c(C)cccc12`, where the note is “dose: 0.62 mg/kg/injection, schedule: Q01DX009 (ip), vehicle: saline with Tween-80”, the T/C was 145 % of control [5 of 6 alive]. For the same molecule, the survivor count (dose: 12.5 mg/kg/injection, schedule: Q01DX009 (ip), vehicle: Klucel (hydroxypropylcellulose) (HPC)) is 6 of 6; the survivor count (dose: 25.0 mg/kg/injection, schedule: Q01DX009 (ip), vehicle: Klucel (hydroxypropylcellulose) (HPC)) was 4 of 6; the survivor count (dose: 50.0 mg/kg/injection, schedule: Q01DX009 (ip), vehicle: Klucel (hydroxypropylcellulose) (HPC)) was 2 of 6.
Take `CS(=O)(=O)C(=Cc1ccccc1Cl)S(C)(=O)=O`: for the setting “dose: 400.0 mg/kg/injection, schedule: Q04DX003 (ip), vehicle: Klucel (hydroxypropylcellulose) (HPC)”, the survivor count is on record as 0 of 6.
On to `CC1C(C(=O)NCCc2ccccc2)CC2CCCCN21` (centres undefined), for which the survivor count under setting [2] is 0 of 6.
Take `COc1cc(/C=C/C(=O)c2ccc(OCc3ccccc3)cc2OC(C)=O)c(OC)c(OC)c1OC`: under “dose: 400.0 mg/kg/injection, schedule: Q01DX001 (ip), vehicle: Klucel (hydroxypropylcellulose) (HPC)”, the survivor count is given as 6 of 6.
As to `c1ccc2c(c1)[nH]c1c2c[n+]2c3c(cccc13)CCC2`, the T/C (dose: 12.5 mg/kg/injection, schedule: Q01DX009 (ip), vehicle: saline) was 130 % of control.
On to `CCOC(=O)NC(=Nc1cccc(C(=O)c2ccc3nc(NC(=O)OCC)[nH]c3c2)c1)NC(=O)OCC`, for which the survivor count (dose: 60.0 mg/kg/injection, schedule: Q01DX005 (ip), vehicle: saline with Tween-80) is listed as 6 of 6; the survivor count under setting [1] is 6 of 6; the survivor count under setting [2] is reported as 6 of 6.
Consider `C=C(Cl)CC(N)C(=O)O` (centres undefined), for which the survivor count under setting [10] is listed as 2 of 5.
In the case of `O=C(Nc1ccccc1)c1c(O)[nH]c(=O)[nH]c1=O`, the T/C under setting [7] was 134 % of control; the T/C under setting [8] is 126 and 134 % of control; the T/C under setting [11] was 133 % of control [5 of 6 alive]. For the same molecule, the survivor count by setting is: under setting [9], 6 of 6; under setting [11], 4 of 6.
As for `CCN(CCNc1ccc(C)c2sc3cc(Cl)ccc3c(=O)c12)CC(C)(C)O`, the survivor count under setting [3] is reported as 5 of 5.
Take `CCOCN(COCC)c1ccccn1`: under setting [5], the T/C is 125 and 130 % of control. Further, the survivor count under setting [6] was 2 of 6 and 4 of 6.
As to `NC1(C(=O)O)CCCc2ccc(N(CCCl)CCCl)cc21` (centres undefined), the T/C is 140 % of control (dose: 2.5 mg/kg/injection, schedule: Q04DX003 (ip), vehicle: saline) and 144 % of control (dose: 25.0 mg/kg/injection, schedule: Q01DX009 (ip), vehicle: saline with Tween-80). Further, the survivor count under setting [4] is 3 of 6; the survivor count (dose: 50.0 mg/kg/injection, schedule: Q04DX003 (ip), vehicle: saline with Tween-80) was 5 of 6; the survivor count under setting [5] was 2 of 6.
Consider `Cc1cc(N=Cc2cccs2)ccc1Br`, for which the T/C (dose: 200.0 mg/kg/injection, schedule: Q01DX009 (ip), vehicle: Klucel (hydroxypropylcellulose) (HPC)) is 129 % of control.
